Literature values, collected in PMC4160570, “Effects of proarrhythmic drugs on relaxation time and beating pattern in rat engineered heart tissue” (Basic Research in Cardiology, 2014).

How the values were obtained:
rat = conditions: in vivo; cited from earlier work
mouse = conditions: in vivo; cited from earlier work

## COC(=O)C1=C(C)NC(C)=C(C(=O)OC)C1c1ccccc1[N+](=O)[O-] [Nifedipine]
rat
  LD50: 1.022 mg∙kg^-1 (rat, p. o.) 185 mg∙kg^-1 (mouse, i. p.)
mouse
  LD50: 1.022 mg∙kg^-1 (rat, p. o.) 185 mg∙kg^-1 (mouse, i. p.)
